Paper doi:10.1101/2025.10.19.683266
These are yes or no findings as the source states them, for the method shown. Binding seen in cells or lysates may run through a third protein. These calls come from enrichment with a bait or labelling near it, and not all partners need be listed.

Target: T1, AGIA-AirID-Pbdc1 isoform 1 (mouse) (UniProt Q9D0B6)
T1 sequence: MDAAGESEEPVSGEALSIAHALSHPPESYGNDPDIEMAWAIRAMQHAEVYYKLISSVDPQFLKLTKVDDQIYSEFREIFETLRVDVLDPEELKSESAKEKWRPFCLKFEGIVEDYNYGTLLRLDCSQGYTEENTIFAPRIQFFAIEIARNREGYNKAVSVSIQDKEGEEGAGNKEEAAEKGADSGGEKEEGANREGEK
Assay: proximity labelling

## HNRNPK (from UniProt P61979 1-463)
  binding: binds

B1: SNRPA1 (protein, UniProt P57784 1-255)
chain: MVKLTAELIEQAAQYTNAVRDRELDLRGYKIPVIENLGATLDQFDAIDFSDNEIRKLDGFPLLRRLKTLLVNNNRICRIGEGLDQALPCLTELILTNNSLVELGDLDPLASLKSLTYLSILRNPVTNKKHYRLYVIYKVPQVRVLDFQKVKLKERQEAEKMFKGKRGAQLAKDIARRSKTFNPGAGLPTDKKKGGPSAGDVEAIKNAIANASTLAEVERLKGLLQSGQIPGRERRSGPSDEGEEEIEDDTVTNGS
  binding: binds

B2: SART1 (protein, UniProt Q9Z315 1-806)
chain: MGSSKKHRGEKEAAGTTAAAGTGGTTEQPPRHREHKKHKHRSSGGGSSGGERRKRSRERGSERGSGRRGAEAEARSGAHGRERSQAEPSERRVKREKRDDGYEAAASSKASSGDASSLSIEETNKLRAKLGLKPLEVNAVKKEAGTKEEPVAADVINPMALRQREELREKLAAAKEKRLLNQKLGKIKTLGEDDPWLDDTAAWIERSRQLQKEKDLAEKRAKLLEEMDQEFGVSTLVEEEFEQRRQDLYSARDLQGLTVEHAIDSFREGETVVLTLKDKGVLQDGEDVLVNVNMVDKERADKNVELRKKKPDYLPYAEDESVDDLAQQKPRSILAKYDEELEGERPHSFRLEQGGMADGLRERELEEIRTKLRLQAQSLSSVGPRLASEYLSPEEMVTFKKTKRRVKKIRKKEKEVIMRADDLLPLGDQTQDGDFGSRLRGRGRRRVPEVEEEALEDEEKDPVAQPPPSDDTRVENMDISDEEDGGALPPGSPEGLEEDEAELELQKQLEKGRRLRQLQQLQQLRDSGEKVLEIVKKLESRQRGWEEEEDPERKGTIVFNATSEFCRTLGEIPTYGLAGNREEQEELMDFERDEERSANGGSESDGEENIGWSTVNLDEEKQHQDFSASSTTILDEEPIVNRGLAAALLLCQNKGLLETTVQKVARVKAPNKSLPSAVYCIEDKMAIDDKYSRREEYRGFTQDFKEKDGYKPDVKIEYVDETGRKLTPKEAFRQLSHRFHGKGSGKMKTERRMKKLDEEALLKKMSSSDTPLGTVALLQEKQKAQKTPYIVLSGSGKSMNANTITK
  binding: binds
